Reference: PubChem BioAssay AID1259308 (NCATS, 2017)
The deposit covers about 59,000 reagents; below is a part drawn at random. About 1,510 of them (2.6%) were called active. 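Calls use total luciferase alone and ignore viability, so some active siRNAs may act by altering cell number.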 The numbers tell different reagents against one gene apart. Further read-outs or replicates are left out here.

Purpose: 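Genes whose loss raises luciferase production in HEK293 cells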 (primary screen)
Cells: human HEK293 embryonic kidney cells stably expressing firefly luciferase (HEK-CMV-Luc2-Hygro)
Reagents: single siRNA against human genes, 0.8 pmol siRNA per well
Time to read-out: 72 h
Read-out: 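Reporter luminescence and viable-cell signal on separate replicate plates, given as percent of non-targeting control and median/MAD z-scores, plus per-cell luciferase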
Direction: total luciferase, z-score: higher = more reporter protein produced
Active means: 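An siRNA counts as active if its total luciferase robust z-score exceeds 3; genes with two or more such siRNAs out of three were retested with fresh siRNAs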
Meaning of the calls: active = raised luciferase; inactive = no rise

Depletion of FCGRT (GeneID 2217) #1 came out at: total luciferase, z-score -0.0963; inactive. Silencing of FCGRT (GeneID 2217) #2 resulted in: total luciferase, z-score -0.322; inactive. Against FCGRT (GeneID 2217) #3, the values are total luciferase, z-score -0.347; inactive. Depletion of PLCXD3 (GeneID 345557) #1 came out at: total luciferase, z-score -0.0137; inactive. After knock-down of PLCXD3 (GeneID 345557) #2 the results were total luciferase, z-score -0.652; inactive. PLCXD3 (GeneID 345557) #3 scored total luciferase, z-score 0.856; inactive.

Depletion of SGSM3 (GeneID 27352) #1 resulted in: total luciferase, z-score 0.2; inactive. After knock-down of SGSM3 (GeneID 27352) #2, the screen gave total luciferase, z-score 0.0207; inactive. SGSM3 (GeneID 27352) #3 gave total luciferase, z-score 0.274; inactive. After knock-down of SYT9 (GeneID 143425) #1, the screen gave total luciferase, z-score -0.0512; inactive. SYT9 (GeneID 143425) #2 showed total luciferase, z-score 0.761; inactive. With knock-down of SYT9 (GeneID 143425) #3, the record shows total luciferase, z-score -0.309; inactive.

With knock-down of DAPP1 (GeneID 27071) #1, the record shows total luciferase, z-score -1.04; inactive. With knock-down of DAPP1 (GeneID 27071) #2 the results were total luciferase, z-score 1.12; inactive. DAPP1 (GeneID 27071) #3 gave total luciferase, z-score 0.465; inactive. For MUC1 (GeneID 4582) #1, the values are total luciferase, z-score 0.865; inactive. MUC1 (GeneID 4582) #2 scored total luciferase, z-score 0.113; inactive. Knock-down of MUC1 (GeneID 4582) #3 came out at: total luciferase, z-score 0.545; inactive.

Part of the list above in another layout.
{"Gene":"MUC1 (GeneID 4582)","reagent no.":1,"total luciferase, z-score":0.865,"activity call":"inactive"}
{"Gene":"MUC1 (GeneID 4582)","reagent no.":2,"total luciferase, z-score":0.113,"activity call":"inactive"}
{"Gene":"MUC1 (GeneID 4582)","reagent no.":3,"total luciferase, z-score":0.545,"activity call":"inactive"}

More records:
After knock-down of PARP15 (GeneID 165631) #1 the results were total luciferase, z-score 0.277; inactive. After knock-down of PARP15 (GeneID 165631) #2 the results were total luciferase, z-score 0.193; inactive. PARP15 (GeneID 165631) #3 showed total luciferase, z-score -0.497; inactive. Depletion of THAP12P1 (GeneID 728748) #1 gave: total luciferase, z-score 0.998; inactive. Knock-down of THAP12P1 (GeneID 728748) #2 resulted in: total luciferase, z-score -1.15; inactive. For THAP12P1 (GeneID 728748) #3 the deposit lists total luciferase, z-score -0.961; inactive.

Against RRAGA (GeneID 10670) #1, the entry reads total luciferase, z-score 0.696; inactive. For RRAGA (GeneID 10670) #2, the values are total luciferase, z-score 0.696; inactive. RRAGA (GeneID 10670) #3 gave total luciferase, z-score 0.614; inactive. Against ZNF454 (GeneID 285676) #1 the deposit lists total luciferase, z-score -1.91; inactive. Knock-down of ZNF454 (GeneID 285676) #2 gave: total luciferase, z-score 0.644; inactive. After knock-down of ZNF454 (GeneID 285676) #3, the screen gave total luciferase, z-score -0.317; inactive.

After knock-down of ANKRD40 (GeneID 91369) #1, the screen gave total luciferase, z-score -1.26; inactive. Silencing of ANKRD40 (GeneID 91369) #2 came out at: total luciferase, z-score -1.5; inactive. With knock-down of ANKRD40 (GeneID 91369) #3, the record shows total luciferase, z-score -0.559; inactive.
